This assay in a line: qHTS Assay to Find Inhibitors of Chronic Active B-Cell Receptor Signaling. To be noted: ABC-DLBCL IkBa-CBG/CBR reporter, luminescence ratio (green luciferase fused to IkBa over red control in TMD8 lymphoma cells), 4 h. The method in brief: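 TMD8 human ABC-DLBCL cells with doxycycline-inducible IκBα–green luciferase fusion and unfused red luciferase, in 0.5% FBS medium; compounds up to 46 uM, 4 h at 37C. Green/red luminescence ratio, filter-overlap corrected, fitted to concentration-response curves.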

The mark [1] stands for this setting: measured here: CBR red luminescence, cell number.
[2] abbreviates: measured here: IkBa-CBG green luminescence.

Our source for the AC50 values is PubChem BioAssay AID493014 (National Center for Advancing Translational Sciences (NCATS), 2011).

Some of the results follow. Shown are side measurements of this screen, not its main read-out; they come without a call. Compounds called inactive in the main read-out are mostly missing here. Words in brackets tell the shape of the fitted curve; partial curves, single points and poor fits give uncertain potencies.

As to `COc1ccc(C2c3sc(=O)[nH]c3SC3C4CCC(C4)C23)cc1` (stereo not given), the AC50 under setting [1] is 29.1 µM [rising, single point].
Same read-out and setting: in the case of `O=C1c2ccccc2NC(c2ccc(-c3cccc(F)c3)o2)N1O` (stereo not given) it was 9.2 µM [falling, partial curve]; in that of `CN(C)c1ncc(S(=O)(=O)c2ccccc2)c(N)n1`, 0.891 µM [falling, full curve]; in that of `Cc1cc(C(=O)NNCc2ccccc2)no1`, 18.4 µM [rising, single point].
For the compound `CCn1c(=O)c(NC(=O)c2ccccc2)c2n(c1=S)CCCCC2`, the AC50 under setting [1] is 4.11 µM [falling, partial curve, poor fit].
The same measure, in the same setting: the result for `Cc1cccc(Nc2cnn(C34CC5CC(CC(CC(=O)O)(C5)C3)C4)c(=O)c2Cl)c1` reads 0.461 µM [falling, partial curve, poor fit].
Still for that read-out and setting: the result for `COc1ccc(C(=O)CSc2nccn2C)c(OC)c1` reads 7.94 µM [falling, partial curve].
For the compound `CC(=O)Nc1ccccc1C(=O)N1CC2(C)CC1CC(C)(C)C2` (stereo not given), the half-maximal activity concentration (AC50) under setting [1] is 2.31 µM [rising, partial curve].
On the same count and under the same terms, in the case of `C[C@@H]1CN([C@@H](C)CO)C(=O)c2cccc(NC(=O)Nc3ccccc3)c2O[C@H]1CN(C)C(=O)Nc1cccc2ccccc12` it was 29.1 µM [falling, single point].
The same measure, in the same setting: in the case of `COc1cccc(C(=O)NC(=S)Nc2ccc3oc(=O)ccc3c2)c1` it was 20.6 µM [falling, single point].
`Cc1ccc(Nc2nnc(SCC(=O)NC(Cc3c[nH]c4ccccc34)C(=O)O)s2)cc1` (stereo not given): the AC50 under setting [1] is 11.2 µM [rising, partial curve].
The same measure, in the same setting: the result for `CCOC(=O)Cc1csc(NC(=O)COc2ccc(C)c(C)c2)n1` reads 20 µM [falling, single point].
Still for that read-out and setting: the result for `CCCN1CCC(N2CCN(c3cccc(C(F)(F)F)c3)CC2)CC1` reads 29.1 µM [falling, single point]; that for `Cc1[nH]n(-c2ccccc2)c(=O)c1/C=N/N1C(=O)c2ccc3c4c(ccc(c24)C1=O)CC3`, 20.6 µM [rising, partial curve]; that for `O=C(/C=C/c1nc2ccccc2s1)N1CCCCCC1`, 11.2 µM [falling, single point].
On the same count and under the same terms, the result for `CCC(C)NC(=O)CCNS(=O)(=O)c1ccc(Br)cc1` (stereo not given) reads 6.51 µM [rising, single point].
For the compound `O=C(O)CSc1nnc(-c2cc3ccccc3o2)n1-c1ccccc1`, the AC50 under setting [1] was 5.17 µM [falling, single point].
On the same count and under the same terms, the result for `O=C(NCc1cc([N+](=O)[O-])ccc1O)c1cc(-c2ccncc2)nc2ccccc12` reads 0.501 µM [falling, full curve, poor fit]; that for `Cc1ccc(N(Cc2cc3ccccc3[nH]c2=O)C(=O)c2cccs2)cc1`, 18.4 µM [rising, single point].
On the same count and under the same terms, in the case of `O=C(Nc1ccc(N2CCOCC2)cc1)c1ccc(Cl)cc1N1CCCC1=O` it was 4.11 µM [falling, partial curve, poor fit].
The same measure, in the same setting: the result for `COc1ccc2oc(=O)c(C(=O)NCc3ccccc3)cc2c1` reads 11.2 µM [rising, partial curve, poor fit]; that for `O=C(c1ccccc1)c1coc2ccc(O)c(Cl)c12`, 28.2 µM [falling, single point]; that for `Cc1ccccc1Nc1nnc(SCc2cc([N+](=O)[O-])cc3c2OCOC3)s1`, 2.91 µM [falling, full curve, poor fit].
As to `CC(NC(=O)NNC(N)=S)(C(F)(F)F)C(F)(F)F`, the AC50 is, setting by setting: under setting [1], 22.4 µM [falling, single point]; under setting [2], 35.5 µM [falling, single point].
Regarding `CN(CCC#N)S(=O)(=O)c1ccc2[nH]cc(C(=O)NCCc3ccccc3)c(=O)c2c1`, the AC50 under setting [1] is 20.6 µM [falling, partial curve, poor fit].
Still for that read-out and setting: in the case of `Cc1ccc(/C=N/N=C/c2ccc(C)s2)s1` it was 13 µM [falling, partial curve, poor fit]; in that of `CCOC(=O)C1=C(O)/C(=C/c2cc(C)n(-c3ccccc3)c2C)N=C1C`, 3.16 µM [rising, partial curve, poor fit]; in that of `O=S(=O)(CC(CN1CCCCC1)N1CCCCC1)c1ccccc1` (stereo not given), 7.94 µM [falling, partial curve, poor fit].
Same read-out and setting: the result for `Cc1ccc2nc(-c3ccc(O)c(O)c3)cn2c1` reads 11.2 µM [falling, single point]; that for `COc1cccc(C(=O)NCCSc2ccc(C)cc2)c1`, 6.51 µM [falling, partial curve, poor fit].
On the same count and under the same terms, the result for `CC1CCCN(S(=O)(=O)c2ccc(N(C(=O)c3cnccn3)C(C(=O)NC3CCCCC3)c3cccs3)cc2)C1` (stereo not given) reads 0.58 µM [falling, full curve, poor fit]; that for `COc1ccc(NC(=O)N2CCCC(c3nc(-c4ccc(OC)cc4)no3)C2)cc1` (stereo not given), 3.98 µM [falling, partial curve, poor fit].
For `CC(=O)c1ccc(NS(=O)(=O)c2ccc(N)cc2)cc1`, the AC50 under setting [2] is 15.8 µM [falling, single point].
Regarding `CCc1cc(C(=O)Nc2nc(-c3ccccn3)cs2)sc1C`, the AC50 under setting [1] was 7.31 µM [rising, single point].
Still for that read-out and setting: the result for `O=C(Oc1ccc2c(-c3ccccc3)cc(=O)oc2c1)c1cccs1` reads 1.03 µM [rising, full curve, poor fit]; that for `CC1(C)CC(=O)C=C(c2cccc3c2Oc2ccccc2S3)C1`, 6.51 µM [rising, single point].
Turning to `CC1CCN(c2cc(N)c(Cl)cc2[N+](=O)[O-])CC1`, the AC50 under setting [1] was 31.6 µM [rising, single point].
With `COCCNC(=O)c1cnn2c(C(F)(F)F)cc(-c3ccc4c(c3)OCO4)nc12`, the AC50 under setting [1] was 9.2 µM [rising, partial curve, poor fit].
Still for that read-out and setting: the result for `O=[N+]([O-])c1cccc(C(=NCc2ccccc2)NO)c1` reads 5.62 µM [rising, full curve, poor fit].
The same measure, in the same setting: in the case of `COc1ccc2ncc(S(=O)(=O)c3ccccc3)c(N3CCC4(CC3)OCCO4)c2c1` it was 25.9 µM [falling, partial curve, poor fit].
On the same count and under the same terms, the result for `Cc1ccc(C(=O)Nc2ccc(S(=O)(=O)N3CCCC3)cc2)s1` reads 31.6 µM [falling, partial curve, poor fit]; that for `CC(=O)c1cc(C#N)c(NCc2cc(-c3ccccc3)no2)nc1C`, 35.5 µM [rising, single point].
In the case of `CCN1C(=O)[C@H]2[C@@H](c3ccc(C)cc3)N3C(=O)N(c4ccc(C(F)(F)F)cc4)C(=O)[C@@]3(Cc3ccccc3)[C@H]2C1=O`, the AC50 under setting [1] was 2.24 µM [rising, partial curve].
As to `CC1=C/C(=N\N=C2\NC(=O)C(CC(=O)Nc3ccccc3F)S2)CC(C)(C)C1` (stereo not given), the AC50 is 17.8 µM [falling, single point] under setting [1] and 35.5 µM [falling, single point] under setting [2].
Consider `Cc1cccc(-n2nnnc2SCc2csc(-c3ccccc3)n2)c1`, for which the AC50 under setting [1] is 8.2 µM [rising, partial curve, poor fit].
On the same count and under the same terms, the result for `COc1ccc(C(=O)Nc2ncc3c(n2)CC(C)CC3=O)cc1` (stereo not given) reads 11.2 µM [falling, partial curve, poor fit]; that for `CCOC(=O)c1c(NC(=O)CSc2ccccc2C(=O)O)sc(C)c1C`, 35.5 µM [falling, single point]; that for `CC[C@H](C)[C@@H](NC(=O)O[C@@H]1C(=O)c2cc(Br)ccc2O[C@H]1c1cccc(OC)c1)C(=O)OC`, 2.59 µM [rising, full curve].
Consider `CS(=O)(=O)N1CCN(c2nc(-c3ccc(F)cc3)cs2)CC1`, for which the AC50 under setting [1] was 22.4 µM [rising, single point].
Same read-out and setting: in the case of `Cc1ccc2nc(NCc3ccccc3)c(C=NCc3ccccc3)c(=O)n2c1` it was 2.06 µM [rising, full curve, poor fit]; in that of `Oc1ccc(/C=C/c2ccnc3ccccc23)cc1`, 29.1 µM [falling, single point]; in that of `S=c1[nH]nc(-c2ccccn2)n1/N=C/c1ccco1`, 22.4 µM [falling, single point].
In the case of `COc1ccc(S(=O)(=O)N(Cc2cc3ccc(OC)cc3[nH]c2=O)CC2COCCO2)cc1` (stereo not given), under setting [1], the AC50 is 14.1 µM [rising, partial curve].
For `O=C(c1cc(COc2ccc(F)cc2Cl)on1)N1CCc2sccc2C1`, under setting [1], the AC50 was 11.2 µM [rising, partial curve, poor fit].
On the same count and under the same terms, in the case of `CCCc1ccc(-c2csc(NC(=O)Cc3cccs3)n2)cc1` it was 3.66 µM [rising, partial curve].
The same measure, in the same setting: in the case of `C=CC[n+]1c(C)csc1Nc1cccc(Br)c1` it was 20 µM [rising, single point]; in that of `CC(C)(C)c1ccc(C(=O)O/N=C(\N)c2ccccc2)cc1`, 3.55 µM [rising, full curve].
For `COc1ccc(/C=C2\SC(=S)N(CCC(=O)NCCCN3CCOCC3)C2=O)cc1`, under setting [1], the AC50 is 7.08 µM [falling, partial curve].
For the compound `COc1ccccc1C(=O)COC(=O)c1ccc(N(C)C)cc1`, the AC50 under setting [1] is 14.1 µM [falling, partial curve].
On to `Cc1cccc(Nc2c(F)c(F)c(F)c(F)c2C(=O)O)c1`, for which the half-maximal activity concentration (AC50) under setting [1] is 17.8 µM [rising, single point].
Still for that read-out and setting: the result for `COc1ccc(NS(=O)(=O)c2cc(C)ccc2OC)cc1OC` reads 14.6 µM [rising, partial curve, poor fit]; that for `Cc1ccc(NC(=O)c2ccco2)cc1NC(=O)CSc1nnc(-c2cccs2)n1C`, 20.6 µM [falling, single point]; that for `CCN(CC)S(=O)(=O)c1cc(NC(=O)NCCCl)ccc1C`, 12.6 µM [rising, partial curve, poor fit].
